Substitutions are numbered along the chain they refer to. For some assays here: A negative result means that nothing was seen under these conditions. For some assays here: The comparison behind a weaker result is the experiment's own reference, which may not be listed here. For some assays here: Where a protein sequence is shown, tags need not be part of it. For some assays here: Construct, isoform or probe ends are uncertain for at least one entry. For some assays here: At least one verdict rests on a figure or table, not on a statement of the authors.
What was measured:
[1] = target: MBP-USF2_ΔLZ-Ext (Homo sapiens) (UniProt Q15853); assay: EMSA; conditions: MBP fusion state not stated for this gel; EMSA: 100 nM Cy3-DNA, 10 mM Tris pH 8.0, 50 mM KCl, 1 mM DTT, 2 mM MgCl2, 5% glycerol, 4 C, 2 h; recombinant protein; residues 235-292; protein details: 6xHis-MBP N-terminal; label: 5'-Cy3 on one strand
[2] = target: MBP-USF2 K271A (Homo sapiens) (UniProt Q15853); assay: fluorescence anisotropy; conditions: FA: 20 nM FAM-DNA, 20 mM Tris pH 8.0, 50 mM KCl, 2 mM MgCl2, 0.5% glycerol, 4 C, 3 h; recombinant protein; residues 235-346; protein details: 6xHis-MBP N-terminal; label: 5'-FAM on strand 1
[3] = target: MBP-USF2_WT (Homo sapiens) (UniProt Q15853); assay: fluorescence anisotropy; conditions: WT Kd not in the given text; FA: 20 nM FAM-DNA, 20 mM Tris pH 8.0, 50 mM KCl, 2 mM MgCl2, 0.5% glycerol, 4 C, 3 h; recombinant protein; residues 235-346; protein details: 6xHis-MBP N-terminal; label: 5'-FAM on strand 1
[4] = target: MBP-USF2 K271E (Homo sapiens) (UniProt Q15853); assay: fluorescence anisotropy; conditions: more than 9-fold reduced; FA: 20 nM FAM-DNA, 20 mM Tris pH 8.0, 50 mM KCl, 2 mM MgCl2, 0.5% glycerol, 4 C, 3 h; recombinant protein; residues 235-346; protein details: 6xHis-MBP N-terminal; label: 5'-FAM on strand 1
[5] = target: T1, MBP-USF2 R247E (Homo sapiens) (UniProt Q15853); assay: fluorescence anisotropy; conditions: more than 20-fold reduced; FA: 20 nM FAM-DNA, 20 mM Tris pH 8.0, 50 mM KCl, 2 mM MgCl2, 0.5% glycerol, 4 C, 3 h; recombinant protein; residues 235-346; protein details: 6xHis-MBP N-terminal; label: 5'-FAM on strand 1
T1 sequence (looked up): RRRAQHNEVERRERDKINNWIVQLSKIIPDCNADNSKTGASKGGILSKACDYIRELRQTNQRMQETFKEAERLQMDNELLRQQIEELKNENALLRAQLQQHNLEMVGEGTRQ

Sequences of proteins named here, by UniProt entry; tags and fusion partners are left off. Residues count along the entry.
UniProt Q15853, 235-292, stated change not applied: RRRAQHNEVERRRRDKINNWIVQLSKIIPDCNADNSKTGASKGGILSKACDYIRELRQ
UniProt Q15853, 235-346 Q334A: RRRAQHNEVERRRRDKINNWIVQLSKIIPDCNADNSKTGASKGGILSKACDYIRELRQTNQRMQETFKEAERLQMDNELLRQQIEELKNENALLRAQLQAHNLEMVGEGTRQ

[6] = target: USF2_Q334A (Homo sapiens) (UniProt Q15853); assay: fluorescence anisotropy; conditions: FA: 20 nM FAM-DNA, 20 mM Tris pH 8.0, 50 mM KCl, 2 mM MgCl2, 0.5% glycerol, 4 C, 3 h; recombinant protein; residues 235-346; label: 5'-FAM on strand 1
[7] = target: MBP-USF2 H240E (Homo sapiens) (UniProt Q15853); assay: fluorescence anisotropy; conditions: more than 5-fold reduced; FA: 20 nM FAM-DNA, 20 mM Tris pH 8.0, 50 mM KCl, 2 mM MgCl2, 0.5% glycerol, 4 C, 3 h; recombinant protein; residues 235-346; protein details: 6xHis-MBP N-terminal; label: 5'-FAM on strand 1
[8] = target: T2, MBP-USF2 R248E (Homo sapiens) (UniProt Q15853); assay: fluorescence anisotropy; conditions: more than 14-fold reduced; FA: 20 nM FAM-DNA, 20 mM Tris pH 8.0, 50 mM KCl, 2 mM MgCl2, 0.5% glycerol, 4 C, 3 h; recombinant protein; residues 235-346; protein details: 6xHis-MBP N-terminal; label: 5'-FAM on strand 1
T2 sequence (looked up): T1 sequence (looked up) with E13R, R14E

Row | Sequence | binding result [1] | Kd [2] | binding result [3] | Kd [4] | Kd [5] | binding result [6] | Kd [7] | Kd [8]
1 | GACGGGCACGTGACGCGC (double strand) [Cy3 E-box DNA] | no binding | – | – | – | – | – | – | –
2 | GACGGGCACGTGACGCGC (double strand) [FAM E-box DNA] | – | > 440 nM | binds | > 970 nM | > 2000 nM | binds more weakly | > 580 nM | > 1400 nM

Reference: article PMC10570711, “Tetramerization of upstream stimulating factor USF2 requires the elongated bent leucine zipper of the bHLH-LZ domain” (The Journal of Biological Chemistry, 2023)
